In patent US20190218296A1:
Results are given in words; binding and its absence hold for the method and conditions named. Some binding calls cover weakened binding; strength is not graded here.

Sequences of proteins named here, by UniProt entry; tags and fusion partners are left off. A change or cut given only in a name is not applied to a line headed by its entry. Residues count along the entry.
UniProt Q9NZQ7: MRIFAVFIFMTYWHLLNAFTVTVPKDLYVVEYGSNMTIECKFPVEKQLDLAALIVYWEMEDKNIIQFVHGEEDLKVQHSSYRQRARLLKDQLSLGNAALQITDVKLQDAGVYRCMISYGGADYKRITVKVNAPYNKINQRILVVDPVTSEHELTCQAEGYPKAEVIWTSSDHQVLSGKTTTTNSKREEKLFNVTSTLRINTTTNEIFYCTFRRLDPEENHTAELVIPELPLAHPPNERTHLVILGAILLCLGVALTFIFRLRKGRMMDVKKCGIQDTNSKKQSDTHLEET
human PD-L1 on cells: residues 19-290 of Q9NZQ7

Legend:
[1] = biological target: recombinant cynomolgus monkey PD-L1 (cynomolgus monkey) (UniProt G7PSE7); test: direct ELISA on coated recombinant PD-L1
[2] = biological target: recombinant cynomolgus monkey PD-L1 (cynomolgus monkey) (UniProt G7PSE7); test: direct ELISA on plate-coated recombinant cynomolgus monkey PD-L1; anti-human Fc-HRP, TMB, OD 650 nm
[3] = biological target: recombinant human PD-L1 (human) (UniProt Q9NZQ7); test: direct ELISA on coated recombinant PD-L1
[4] = biological target: human PD-L1 on cells (human) (UniProt Q9NZQ7); test: flow cytometry, PD-L1 transfected HEK 293 cells
[5] = biological target: human PD-L1 on cells (human) (UniProt Q9NZQ7); test: flow cytometry, myeloid-derived dendritic cells
[6] = biological target: human PD-L1 on cells (human) (UniProt Q9NZQ7); test: flow cytometry, human PD-L1 transfected HEK 293 cells
[7] = biological target: human PD-L1 on cells (human) (UniProt Q9NZQ7); test: flow cytometry, anti-CD3-activated human CD4+ T cells
[8] = biological target: human PD-L1 on cells (human) (UniProt Q9NZQ7); test: flow cytometry, human monocyte-derived myeloid dendritic cells
[9] = biological target: human PD-L1 on cells (human) (UniProt Q9NZQ7); test: flow cytometry on HEK-PD-L1 cells; PE anti-human Fc, MFI
[10] = biological target: recombinant human PD-L1 (human) (UniProt Q9NZQ7); test: competition ELISA on coated PD-L1, competitor biotinylated Atezolizumab
[11] = biological target: recombinant human PD-L1 (human) (UniProt Q9NZQ7); test: direct ELISA on plate-coated recombinant human PD-L1; anti-human Fc-HRP, TMB, OD 650 nm
[12] = biological target: recombinant human PD-L1 (human) (UniProt Q9NZQ7); test: competition ELISA: PD-L1 coated, serial dilutions of the antibody, then biotinylated Atezolizumab at 1 µg/ml, streptavidin-HRP, OD 650 nm
[13] = biological target: human PD-L1-his (Sino Biologics) (human) (UniProt Q9NZQ7); test: competition ELISA: human PD-L1-his coated at 1 µg/ml, antibody dilutions, then human PD-1-mouse-Fc at 1 µg/ml, anti-mouse IgG-HRP, OD 650 nm

Binder | binding [1] | binding [2] | binding [3] | also measured
chimeric anti-PD-L1 antibody 23D12 (antibody, human IgG1, V domains shown) VH: QSVEESGGRLVTPGTPLTLTCTVSGFSLSNYVMGWVRQAPGKGLEYIGIISNSDNTYYATWATGRFTISKTSTTVDLKMTSLTTEDTATYFCARVDTYYNDFNLWGPGTLVTVSS VL: QVLTQTPSSVEAAVGGTVTIKCQASEDIERYLAWYQQKPGQPPKQLIYDASKLASGVSSRFKGSGSGTEFTLTISGVQCDDAATYYCQHGYIYSSGNPFGGGTEVVVK | binds | binds |  | 
chimeric anti-PD-L1 antibody 11B11 (antibody, human IgG1, V domains shown) VH: QSVEESGGRLVTPGGTLTLTCTASGFSLSNYTMAWVRQAAGKGLEWIGYINTGGSPYYASWAKGRFTISRSSTTVDLKMTSLTTEDTATYFCARNVDGAWNYLNLWGPGTLVTVSS VL: AYDMTQTPASVEVVVGGTVTIKCQASETINTYLSWYQQKPGQRPRLLIYAASNLASGVPSRFSGSGSGTEFTLTISGVQCADAATYYCQQGINSNVGNTFGGGTEVVVK | binds |  |  | 
chimeric anti-PD-L1 antibody 9A9 (antibody, human IgG1, V domains shown) VH: QSVEESGGRLVTPGTPLTLTCTVSGIDLSGYWMSWVRQAPGKGLEYIGIVDNDGSAYYASWVNGRFTISKTSTTVDLKITSPTTEDTATYFCARQSGDWTFDLWGPGTLVTVSS VL: DVVMTQTPASVSEPVGGTVTIKCQASQSIGRWLSWYQQKPGQPPKLLIYQASKLASGVPSRFSGSGSGTEFTLTISDLECADAATYYCQNNYDIIAYGNAFGGGTEVVVK | binds | binds | binds | binding [4]: binds; binding [5]: binds; binding [6]: binds; binding [7]: binds; binding [8]: binds; binding [9]: binds; binding [10]: binds; binding [11]: binds; binding [12]: binds; binding [13]: binds

Now from value to binder, other results behind:

binding [1] | binding [2] | binding [3] | Binder | also measured
binds | binds |  | chimeric anti-PD-L1 antibody 43G2 (antibody, human IgG1, V domains shown) VH: QSVEESGGRLVTPGTPLTLTCTVSGFSLSSYAMGWVRQAPGEGLEYIGFIDTHGSAYYATWAKGRFTISRTSTTVDLKITSPTTEDTATYFCARNVWTNAGYFNLWGPGTLVTVSS VL: DVVMTQTPSSVSAAVGGTVTIKCQASQNIYTNLAWYQQKPGQPPKLLIYSASTLASGVPSRFKGSGSGTQFTLTISDLECADAATYYCQTYGALIINGGAFGGGTEVVVK | 
binds | binds |  | chimeric anti-PD-L1 antibody 51D5 (antibody, human IgG1, V domains shown) VH: QSVEESGGRLVTPGTPLTLTCIVSGFSLSSYWMSWVRRAPGKGLEWIGYINGGSGNPYYASWAKGRFTISKTSTTVDLKITSPTTEDTATYFCARGGESDDYVYGRYGLDPWGPGTLVTVSS VL: AYDMTQTPASVSEPVGGTVTIKCQASQSISSWLSWYQQKPGQPPKLLIYDASKLASGVPSRFSGSGSGTQFTLTISDLECDDAATYYCQQDYSSYNVDNTFGGGTEVVVK | 
binds |  | binds | chimeric anti-PD-L1 antibody 39B9 (antibody, human IgG1, V domains shown) VH: QSVEESGGRLVTPGTPLTLTCTVSGFSLSNYWMSWVRQAPGKGLEWIGYINGGSGGTYYASWAKGRFTSSKTSTTVDLKITSPTTEDTATYFCARGGESDDYIYGRYGFDPWGPGTLVTVSS VL: AYDMTQTPASVSEPVGGTVTIKCQASQSISSWLSWYQQKPGQPPKLLIYQASKLASGVSSRFKGSGSGTDFTLTIIGVECADAATYYCQQDYASYNVDNTFGGGTEVVVK | 
